Results as given in patent US20110003809A1, “IMIDAZO [4,5-B] PYRIDINE DERIVATIVES USED AS RAF INHIBITORS” (Array Biopharma Inc., priority 2008, published 2011).
Some results were stated once for a whole list of compounds, not compound by compound.

Amino acid sequences for entries named in this document (tags omitted).
UniProt P15056, whole entry V600E: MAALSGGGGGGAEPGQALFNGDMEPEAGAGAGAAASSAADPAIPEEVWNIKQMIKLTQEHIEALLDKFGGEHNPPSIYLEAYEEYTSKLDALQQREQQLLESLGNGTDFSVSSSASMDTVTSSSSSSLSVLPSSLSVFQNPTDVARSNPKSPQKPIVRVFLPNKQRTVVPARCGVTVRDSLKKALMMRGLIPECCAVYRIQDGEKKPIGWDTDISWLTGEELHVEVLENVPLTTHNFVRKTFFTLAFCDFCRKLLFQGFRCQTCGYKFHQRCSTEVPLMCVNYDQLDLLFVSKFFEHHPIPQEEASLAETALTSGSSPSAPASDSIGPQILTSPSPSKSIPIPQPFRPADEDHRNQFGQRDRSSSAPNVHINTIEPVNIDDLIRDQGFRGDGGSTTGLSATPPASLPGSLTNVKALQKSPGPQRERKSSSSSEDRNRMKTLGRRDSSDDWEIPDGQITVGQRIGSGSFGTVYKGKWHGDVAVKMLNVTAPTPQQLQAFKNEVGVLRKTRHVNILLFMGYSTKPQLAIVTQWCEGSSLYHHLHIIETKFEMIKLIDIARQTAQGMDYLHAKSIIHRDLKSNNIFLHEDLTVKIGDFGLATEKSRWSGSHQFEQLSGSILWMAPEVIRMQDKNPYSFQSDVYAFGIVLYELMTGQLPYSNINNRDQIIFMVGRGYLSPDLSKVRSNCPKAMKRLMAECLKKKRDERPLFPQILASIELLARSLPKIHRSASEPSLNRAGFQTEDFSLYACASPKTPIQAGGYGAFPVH

target: T1, V600E full-length B-Raf (Homo sapiens, UniProt P15056, V600E); test: B-Raf IC50 Assay Protocol (incorporation of radio labeled phosphate from [γ-33P]ATP into FSBA-modified wild-type MEK); type: biochemical; details: 20 nM V600E full-length B-Raf, 1 μM FSBA-MEK, 4 μM ATP, 60-minute incubation at 22° C.
T1 construct: 1 μM FSBA-MEK and 20 nM V600E full-length B-Raf; made in house; host or cells: Sf9 insect cells (baculovirus)

IC50, < 1 µM:
CCCS(=O)(=O)Nc1ccc(F)c(C(=O)Nc2cnc3[nH]c(-c4ccc(F)cc4)nc3c2)c1F [Example 12, 2,6-difluoro-N-(2-(4-fluorophenyl)-3H-imidazo[4,5-b]pyridin-6-yl)-3-(propylsulfonamido)benzamide]
CCCS(=O)(=O)Nc1ccc(F)c(C(=O)Nc2cnc3[nH]c(-c4ccccc4Cl)nc3c2)c1F [Example 24, N-(2-(2-chlorophenyl)-3H-imidazo[4,5-b]pyridin-6-yl)-2,6-difluoro-3-(propylsulfonamido)benzamide]
CCCS(=O)(=O)Nc1ccc(F)c(C(=O)Nc2cnc3[nH]c(-c4ccc(S(C)(=O)=O)cc4)nc3c2)c1F [Example 39, 2,6-difluoro-N-(2-(4-(methylsulfonyl)phenyl)-3H-imidazo[4,5-b]pyridin-6-yl)-3-(propylsulfonamido) benzamide]
CCCS(=O)(=O)Nc1ccc(F)c(C(=O)Nc2cnc3[nH]c(Cc4ccc(Cl)cc4)nc3c2)c1F [Example 25, N-(2-(4-chlorobenzyl)-3H-imidazo[4,5-b]pyridin-6-yl)-2,6-difluoro-3-(propylsulfonamido)benzamide]
